For this assay, the target named is recombinant human S100A4 protein (human) (UniProt P26447). The assay is described as follows: sandwich ELISA: plate coated with 10 µg/ml 5C3 mAb as capture, mouse serum/plasma, detection with rabbit anti-S100A4 polyclonal antibody (DAKO); standard curve with rhS100A4. Background: ELISA stands for enzyme-linked immunosorbent assay.

Chains of the proteins cited; added tags and fusions are not shown. Lines headed by an entry give the natural chain unless they say otherwise; changes in a name come on top.
UniProt P26447: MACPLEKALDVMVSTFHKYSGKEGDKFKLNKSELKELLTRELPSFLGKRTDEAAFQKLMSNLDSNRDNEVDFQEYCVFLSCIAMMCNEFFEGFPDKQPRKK

Results are given in words; binding and its absence hold for the method and conditions named. Some entries that bind do so weakly or less than the wild type.

B1: 5C3 antibody, produced by the hybridoma cell line 5C3-1B8-1F4 with deposit number ECACC 10022401 (antibody, V domains shown)
VH: EAQLQQSGAELVKPGASVKLSCTASGFNIQETYMHWVKQRPEQGLEWIGRIDPANGNTKDDPKFQGKASITVDTSSNTAYLQLSSLTSEDTAVYYCASSYAMDYWGQGTSVTVSS
VL: DVLMTQTPLSLPVSLGDQASISCRSSQSIVHSNGNTYLEWYLQKTGQSPELLIYKVSNRLSGVPDRFSGSGSGTDFTLKISRVEAEDLGVYYCFQGSHVPFTFGSGTKLEIK
For B1, the binding result is reported as “binds”.

The record behind these values is patent US20250011405A1.
